The first data set has as its system T1, BRL.
T1 construct: native, purified from seed flour on agarose-lactose; Alexa Fluor 555 labelled for arrays
Kind of data set: hemagglutination inhibition. Type of data set: cell-based, Bauhinia rufa. The settings on record: rabbit erythrocytes. The text has this: hemagglutination inhibition on BRL
In turn, `OC[C@H]1O[C@H](OC[C@H]2OC(O)[C@H](O)[C@@H](O)[C@@H]2O)[C@H](O)[C@@H](O)[C@H]1O` (stereo partly drawn) [melibiose] gave a BRL of 6.25 mM.
The same measure, in the same setting: in the case of `OC[C@H]1O[C@@H](O[C@H]2[C@H](O)[C@@H](O)[C@@H](O)O[C@@H]2CO)[C@H](O)[C@@H](O)[C@H]1O` [α-lactose] it was 6.25 mM; in that of `CC(=O)N[C@H]1C(O)O[C@H](CO)[C@H](O)[C@@H]1O` (stereo partly drawn) [N-acetyl-D-galactosamine], 0.78 mM; in that of `C[C@@H]1OC(O)[C@H](O)[C@H](O)[C@H]1O` (stereo partly drawn) [L-rhamnose], 25 mM.
The compound `OC[C@H]1OC(O)[C@H](O)[C@@H](O)[C@H]1O` (stereo partly drawn) [D-galactose] displayed a BRL of 1.56 mM.

For another data set, the system named is T2, BBL.
T2 construct: native, purified from seeds by a published protocol; 76 residues previously published (unaligned); Alexa Fluor 555 labelled for arrays
The data set is described as follows: hemagglutination inhibition. To be noted: rabbit erythrocytes. Type of data set: cell-based, Bauhinia bauhinioides. The text has this:
hemagglutination inhibition on BBL
In the case of `CO[C@H]1O[C@H](CO)[C@H](O)[C@H](O)[C@H]1O` [α-methyl-D-galactopyranoside], the BBL came out at 1.56 mM.
`OC[C@H]1O[C@@H](O[C@H]2[C@H](O)[C@@H](O)[C@@H](O)O[C@@H]2CO)[C@H](O)[C@@H](O)[C@H]1O` [α-lactose] yielded a BBL of 3.16 mM.
Take `CC(=O)N[C@H]1C(O)O[C@H](CO)[C@H](O)[C@@H]1O` (stereo partly drawn) [N-acetyl-D-galactosamine]: the BBL is on record as 1.56 mM.
Same read-out and setting: in the case of `OC[C@H]1OC(O)[C@H](O)[C@@H](O)[C@H]1O` (stereo partly drawn) [D-galactose] it was 3.16 mM.
